Literature values as cited in patent publication US7435716B2, “Compounds pharmaceutical compositions and methods for treatment of bacteremia and/or septicemia” (Ramot At Tel Aviv University Ltd., priority 2001, dated 2008).
Where two headings read alike, the source gives them in different places. Some results were stated once for a whole list of compounds, not compound by compound.

Settings: mice, cited from earlier work

Row | Substance | LD50 (intraperitoneally) | LD50 (intravenously)
1 | Polymyxin B | 18-30 mg/Kg body weight | 6-10 mg/Kg body weight
2 | colistin | 18-30 mg/Kg body weight | 6-10 mg/Kg body weight
